Experimental findings from paper PMC4981888 are described below.

No constants are given. Whether binding was seen depends on the method and setting. Binding seen in cells or lysates may run through a third protein. Some binding calls cover weakened binding; strength is not graded here.

The target in the experiment is Survivin, endogenous (human (endogenous in MDA-MB-231)) (UniProt O15392). The experiment can be described thus: co-IP; endogenous SVV precipitated from 1 mg crude MDA-MB-231 lysate (0.5% NP-40 in PBS) with anti-SVV antibody D-8 and protein G sepharose, 4 °C; lysate with no nanobody or pre-incubated with 5 μg GFPNb or SVVNb8; Western blot. On the technique in general: In western blotting, separated proteins are transferred to a membrane and probed.

Turning to “Hsp90AA1, endogenous (from UniProt P07900 1-732)”, the binding entry is “binds”.
